Experimental data published in patent publication US20090247609A1.
These are yes or no findings as the source states them, for the method shown. Binding seen in cells or lysates may run through a third protein. Some binding calls cover weakened binding; strength is not graded here.

Amino acid sequences for entries named in this document (tags omitted). A change or cut given only in a name is not applied to a line headed by its entry.
UniProt Q12846: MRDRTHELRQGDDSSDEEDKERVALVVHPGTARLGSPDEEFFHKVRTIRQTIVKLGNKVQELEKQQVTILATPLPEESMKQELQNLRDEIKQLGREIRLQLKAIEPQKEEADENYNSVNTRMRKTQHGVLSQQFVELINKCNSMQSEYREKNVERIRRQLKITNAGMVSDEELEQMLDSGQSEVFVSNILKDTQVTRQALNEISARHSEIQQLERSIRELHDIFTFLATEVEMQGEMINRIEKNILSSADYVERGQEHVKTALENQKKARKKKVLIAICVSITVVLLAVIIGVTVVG
UniProt O00161: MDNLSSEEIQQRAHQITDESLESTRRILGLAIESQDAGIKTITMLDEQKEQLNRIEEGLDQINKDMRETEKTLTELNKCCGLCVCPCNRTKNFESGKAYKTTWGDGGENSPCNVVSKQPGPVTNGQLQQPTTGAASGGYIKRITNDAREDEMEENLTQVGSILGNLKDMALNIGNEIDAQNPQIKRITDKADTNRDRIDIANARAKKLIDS
UniProt P63027: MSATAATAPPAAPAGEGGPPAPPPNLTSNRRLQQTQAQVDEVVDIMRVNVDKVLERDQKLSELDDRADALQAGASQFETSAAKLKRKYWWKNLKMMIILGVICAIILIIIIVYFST

Molecular target: exocytic SNARE complexes (human) (UniProt Q12846+O00161+P63027)
Experiment: co-immunoprecipitation from HEK-293 lysate with anti-Munc18c antibodies, Western blot

B1: Munc18c (protein)
chain: MAPPVAERGLKSVVWQKIKATVFDDCKKEGEWKIMLLDEFTTKLLASCCKMTDLLEEGITVVENIYKNREPVRQMKALYFITPTSKSVDCFLHDFASKSENKYKAAYIYFTDFCPDNLFNKIKASCSKSIRRCKEINISFIPHESQVYTLDVPDAFYYCYSPDPGNAKGKDAIMETMADQIVTVCATLDENPGVRYKSKPLDNASKLAQLVEKKLEDYYKIDEKSLIKGKTHSQLLIIDRGFDPVSTVLHELTFQAMAYDLLPIENDTYKYKTDGKEKEAILEEEDDLWVRIRHRHIAVVLEEIPKLMKEISSTKKATEGKTSLSALTQLMKKMPHFRKQITKQVVHLNLAEDCMNKFKLNIEKLCKTEQDLALGTDAEGQKVKDSMRVLLPVLLNKNHDNCDKIRAILLYIFSINGTTEENLDRLIQNVKIENESDMIRNWSYLGVPIVPQSQQGKPLRKDRSAEETFQLSRWTPFIKDIMEDAIDNRLDSKEWPYCSQCPAVWNGSGAVSARQKPRANYLEDRKNGSKLIVFVIGGITYSEVRCAYEVSQAHKSCEVIIGSTHVLTPKKLLDDIKMLNKPKDKVSLIKDE
  binding: binds
